The data set can be described thus: general procedure: Fmoc solid-phase peptide synthesis; Rink Amide resin; HATU, HBTU. To be noted: for isolated yield: whole synthesis.

As to AR-Pip-TCO, the isolated yield is listed as 13%. Besides, the conjugation yield (conjugation step) was 34%. Consider AR-Pip-NH2, for which, where the note is “overall yield over two steps, scale 7.2 µmol”, the isolated yield is 32%.
